# PubChem BioAssay AID1053209, Peter MacCallum Cancer Centre | 2014
# Screen: 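Gene losses that combine with doxorubicin to kill mouse bone cancer cells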 (follow-up of hits)
# System: mouse primary osteosarcoma cells
# Reagent: single siRNA against mouse genes, 25 nM (text also states 40 nM)
# Time to read-out: about 120 h (48 h before drug, then 72 h with drug)
# Challenge: doxorubicin 100 nM (about IC30-40), added 48 h after transfection, for 72 h
# Measurement: 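ATP-based luminescent viability, with or without doxorubicin, relative to non-targeting control NT1, mean of two replicates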
# Reading the numbers: viability with doxorubicin, vs NT1: higher = more viable cells under doxorubicin; viability ratio, doxorubicin over no drug: higher = less sensitisation to doxorubicin; viability without drug, vs NT1: higher = more viable cells without drug
# Active means: 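Counted as active (class LC dox) if viability falls to 0.7 of NT1 or below under doxorubicin but stays within 0.7 to 1.1 without drug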
# In all, the deposit lists about 1,580 reagents; this is a random part of them. In the full data, 207 (13%) were called active. 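Rows are single siRNAs; four siRNAs per gene were tested, a gene counting as confirmed only when at least two agree.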 The numbers tell different reagents against one gene apart.
Gene,siRNA no.,combined effect class,"viability with doxorubicin, vs NT1","viability ratio, doxorubicin over no drug","viability without drug, vs NT1",Call
Ikzf5 (GeneID 67143),1,normal viability with and without drug,1.06,1.06,1,inactive
Ikzf5 (GeneID 67143),2,normal viability with and without drug,0.9,0.88,1.02,inactive
Ikzf5 (GeneID 67143),3,normal viability with and without drug,0.87,0.9,0.97,inactive
Ikzf5 (GeneID 67143),4,normal viability with and without drug,1.04,1.04,1,inactive
E2f4 (GeneID 104394),1,normal viability with and without drug,0.92,1.02,0.9,inactive
E2f4 (GeneID 104394),2,low viability only with doxorubicin; normal without drug,0.66,0.73,0.91,active
E2f4 (GeneID 104394),3,normal viability with and without drug,1.04,1.05,0.99,inactive
E2f4 (GeneID 104394),4,normal viability with and without drug,0.92,0.88,1.04,inactive
Slc35f5 (GeneID 74150),1,normal viability with and without drug,0.85,0.87,0.98,inactive
Slc35f5 (GeneID 74150),2,normal viability with and without drug,0.97,0.9,1.08,inactive
Slc35f5 (GeneID 74150),3,high viability only without drug,0.88,0.77,1.15,inactive
Slc35f5 (GeneID 74150),4,normal viability with and without drug,0.9,0.92,0.98,inactive
Psma6 (GeneID 26443),1,low viability with and without drug,0.35,0.67,0.52,inactive
Psma6 (GeneID 26443),2,normal viability with and without drug,0.72,0.81,0.89,inactive
Psma6 (GeneID 26443),3,low viability with and without drug,0.11,0.48,0.23,inactive
Psma6 (GeneID 26443),4,low viability with and without drug,0.15,0.48,0.31,inactive
Krtap15-1 (GeneID 26560),1,normal viability with and without drug,1.01,1.1,0.92,inactive
Krtap15-1 (GeneID 26560),2,normal viability with and without drug,0.84,0.9,0.93,inactive
Krtap15-1 (GeneID 26560),3,normal viability with and without drug,0.9,0.92,0.98,inactive
Krtap15-1 (GeneID 26560),4,normal viability with and without drug,0.92,0.93,0.99,inactive

The list goes on; the last 4 above are carried over.
Gene,siRNA no.,combined effect class,"viability with doxorubicin, vs NT1","viability ratio, doxorubicin over no drug","viability without drug, vs NT1",Call
Krtap15-1 (GeneID 26560),1,normal viability with and without drug,1.01,1.1,0.92,inactive
Krtap15-1 (GeneID 26560),2,normal viability with and without drug,0.84,0.9,0.93,inactive
Krtap15-1 (GeneID 26560),3,normal viability with and without drug,0.9,0.92,0.98,inactive
Krtap15-1 (GeneID 26560),4,normal viability with and without drug,0.92,0.93,0.99,inactive
Eif4a3 (GeneID 192170),1,low viability only with doxorubicin; normal without drug,0.61,0.61,1,active
Eif4a3 (GeneID 192170),2,low viability with and without drug,0.14,0.25,0.57,inactive
Eif4a3 (GeneID 192170),3,low viability only with doxorubicin; normal without drug,0.38,0.48,0.8,active
Eif4a3 (GeneID 192170),4,low viability with and without drug,0.25,0.43,0.58,inactive
Lrrc8a (GeneID 241296),1,low viability only with doxorubicin; normal without drug,0.64,0.88,0.73,active
Lrrc8a (GeneID 241296),2,normal viability with and without drug,1.02,1.04,0.98,inactive
Lrrc8a (GeneID 241296),3,normal viability with and without drug,0.84,0.99,0.85,inactive
Lrrc8a (GeneID 241296),4,normal viability with and without drug,1.09,1.01,1.08,inactive
Eif3e (GeneID 16341),1,low viability with and without drug,0.52,1.06,0.49,inactive
Eif3e (GeneID 16341),2,low viability with and without drug,0.54,0.98,0.55,inactive
Eif3e (GeneID 16341),3,low viability with and without drug,0.54,0.79,0.68,inactive
Eif3e (GeneID 16341),4,normal viability with and without drug,0.91,0.97,0.94,inactive
Or1j21 (GeneID 18350),1,high viability only with doxorubicin,1.12,1.12,1,inactive
Or1j21 (GeneID 18350),2,normal viability with and without drug,1.08,0.99,1.09,inactive
Or1j21 (GeneID 18350),3,low viability only with doxorubicin; normal without drug,0.64,0.84,0.76,active
Or1j21 (GeneID 18350),4,normal viability with and without drug,0.86,0.85,1.01,inactive
Nipbl (GeneID 71175),1,low viability only with doxorubicin; normal without drug,0.68,0.94,0.72,active
Nipbl (GeneID 71175),2,normal viability with and without drug,0.84,1.04,0.81,inactive
Nipbl (GeneID 71175),3,normal viability with and without drug,0.78,0.8,0.98,inactive
Nipbl (GeneID 71175),4,normal viability with and without drug,0.82,0.94,0.87,inactive
